# Article PMC5865150, “Structure and evolution of the Fam20 kinases” (Nature Communications, 2018)
# These are yes or no findings as the source states them, for the method shown. Binding can be weak; no strength is given. Where a sequence is shown, tags or fusion partners need not be part of it.
# Target: zebrafish Fam20C ortholog drFam20C (residues 124-560), untagged (Danio rerio)
# Experiment: crystal structure; Fam20A-drFam20C complex, formed with 0.25 mM ATP and purified by size exclusion; crystals at 20 °C in 11% 2-propanol, 0.1 M sodium citrate tribasic pH 5.0, 8% PEG 10,000; both purified
binder,measurement,value
"human Fam20A (residues 69-529), untagged (domain or fragment, UniProt Q96MK3 69-529, looked up, human Fam20A, pseudokinase, residues 69-529; Crystallised and kept with 0.25 mM ATP; also called hsFam20A; source: High Five insect cells (baculovirus), conditioned medium, purified (Ni-NTA, TEV digestion, Resource Q, size exclusion); not shown: His6, N-terminal, cleaved; MBP, N-terminal, cleaved) HNFSRTEPRTEPAGGSHSGSSSKLQALFAHPLYNVPEEPPLLGAEDSLLASQEALRYYRRKVARWNRRHKMYREQMNLTSLDPPLQLRLEASWVQFHLGINRHGLYSRSSPVVSKLLQDMRHFPTISADYSQDEKALLGACDCTQIVKPSGVHLKLVLRFSDFGKAMFKPMRQQRDEETPVDFFYFIDFQRHNAEIAAFHLDRILDFRRVPPTVGRIVNVTKEILEVTKNEILQSVFFVSPASNVCFFAKCPYMCKTEYAVCGNPHLLEGSLSAFLPSLNLAPRLSVPNPWIRSYTLAGKEEWEVNPLYCDTVKQIYPYNNSQRLLNVIDMAIFDFLIGNMDRHHYEMFTKFGDDGFLIHLDNARGFGRHSHDEISILSPLSQCCMIKKKTLLHLQLLAQADYRLSDVMRESLLEDQLSPVLTEPHLLALDRRLQTILRTVEGCIVAHGQQSVIVDGPVEQ",binding,binds
